Some of the results follow.
How the values were obtained:
Assay in all cases: log2 fold change, soluble protein after heating vs DMSO (PISA); higher = thermal stabilisation; K562 lysate, 10 uM; active = over 0.2 and 3.5 SD of the protein, either way, in both replicates (recomputed)
[1] = compound: C1=CC=C(C=C1)[C@H](COC2=CC3=C(C=C2)NC(=O)N3)NC(=O)C4=CC=CN(C4=O)CC5=CC(=C(C=C5)F)F
Outline: (§1)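 Log-two fold change in thermal stability relative to solvent controls is reported from duplicates. For each sample, crude K562 extract from dounce-homogenised pellets in PBS pH 7.4 with 1 mM MgCl2, at 1 mg/mL protein, was treated with 10 μM compound for 30 min. Aliquots heated for 3 min across 48°C-58°C were pooled, brought to 0.5% NP-40 at 4°C and cleared at 21,000xg for 90 min. The supernatant was quantified by TMTpro 16plex LC-MS/MS with channel sums equalised.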

Protein sequences, listed by entry. Tags and fused reporters are not part of them. Lines headed by an entry give the natural chain unless they say otherwise; changes in a name come on top.
UniProt Q96EE3: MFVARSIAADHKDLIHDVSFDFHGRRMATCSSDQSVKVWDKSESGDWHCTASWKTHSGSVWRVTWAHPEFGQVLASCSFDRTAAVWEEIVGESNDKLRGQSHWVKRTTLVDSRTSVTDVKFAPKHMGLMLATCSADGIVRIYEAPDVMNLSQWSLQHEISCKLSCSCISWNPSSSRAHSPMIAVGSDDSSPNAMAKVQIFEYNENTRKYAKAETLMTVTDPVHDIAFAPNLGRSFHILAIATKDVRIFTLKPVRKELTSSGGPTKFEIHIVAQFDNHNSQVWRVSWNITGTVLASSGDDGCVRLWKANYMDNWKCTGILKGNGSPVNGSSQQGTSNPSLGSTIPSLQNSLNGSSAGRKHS
UniProt Q8WVM8, whole entry, looked up: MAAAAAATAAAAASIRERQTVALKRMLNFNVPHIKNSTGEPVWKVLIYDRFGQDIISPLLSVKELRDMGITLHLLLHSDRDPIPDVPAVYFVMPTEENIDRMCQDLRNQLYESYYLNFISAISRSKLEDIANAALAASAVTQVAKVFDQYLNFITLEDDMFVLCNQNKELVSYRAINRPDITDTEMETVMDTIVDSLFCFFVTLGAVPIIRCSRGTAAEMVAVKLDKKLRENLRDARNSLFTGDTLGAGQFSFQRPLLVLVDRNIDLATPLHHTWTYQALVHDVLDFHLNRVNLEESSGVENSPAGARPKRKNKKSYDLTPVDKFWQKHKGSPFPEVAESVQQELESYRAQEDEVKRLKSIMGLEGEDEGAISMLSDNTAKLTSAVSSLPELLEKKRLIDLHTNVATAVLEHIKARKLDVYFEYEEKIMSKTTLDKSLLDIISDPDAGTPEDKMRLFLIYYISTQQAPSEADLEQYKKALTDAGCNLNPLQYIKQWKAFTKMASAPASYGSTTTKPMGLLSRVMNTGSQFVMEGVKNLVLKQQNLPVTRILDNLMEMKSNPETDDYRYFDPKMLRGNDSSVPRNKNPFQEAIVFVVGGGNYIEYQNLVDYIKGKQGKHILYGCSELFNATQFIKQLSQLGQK
UniProt Q9NP81: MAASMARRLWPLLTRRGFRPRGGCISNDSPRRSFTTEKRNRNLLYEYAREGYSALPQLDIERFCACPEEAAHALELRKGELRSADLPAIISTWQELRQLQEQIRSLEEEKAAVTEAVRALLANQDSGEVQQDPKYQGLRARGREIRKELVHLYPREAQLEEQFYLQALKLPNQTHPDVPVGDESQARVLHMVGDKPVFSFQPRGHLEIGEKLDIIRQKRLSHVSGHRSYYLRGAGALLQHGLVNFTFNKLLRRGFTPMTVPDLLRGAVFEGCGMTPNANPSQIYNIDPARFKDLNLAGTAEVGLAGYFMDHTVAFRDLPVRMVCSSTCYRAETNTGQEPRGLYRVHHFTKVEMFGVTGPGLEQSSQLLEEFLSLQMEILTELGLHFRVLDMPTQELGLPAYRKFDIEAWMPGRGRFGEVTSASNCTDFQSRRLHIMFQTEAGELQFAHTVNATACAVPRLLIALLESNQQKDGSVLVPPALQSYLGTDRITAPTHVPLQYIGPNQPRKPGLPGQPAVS

[2] = compound: CC1=C(SC2=C1C(=N[C@H](C3=NN=C(N32)C)CC(=O)N)C4=CC=C(C=C4)Cl)C
Outline: as §1

[3] = compound: CC1=C2C(=CC=C1)N=C(N(C2=O)C3=CC=CC=C3C)CN4C=NC5=C(N=CN=C54)N
Outline: as §1

[4] = compound: Cc1sc2c(c1C)C(c1ccc(Cl)cc1)=N[C@@H](CC(=O)OC(C)(C)C)c1nnc(C)n1-2
Outline: as §1

[5] = compound: c1ccc([C@@H]2C[C@H]2NC2CCNCC2)cc1
Outline: as §1

erlotinib = compound: C#Cc1cccc(Nc2ncnc3cc(OCCOC)c(OCCOC)cc23)c1 [erlotinib]
Outline: as §1

[6] = compound: C/C(=N\NC(=O)C1=CC(=CC=C1)S(=O)(=O)N2CCOCC2)/C3=C(C=CC(=C3)Cl)O
Outline: as §1

[7] = compound: C1=CC(=CC=C1C2=NC3=C(N2)C=C(C=C3)C(=O)N)OC4=CC=C(C=C4)Cl
Outline: as §1

[8] = compound: C1=CC2=C(C=CC(=C2)/C=C\3/C(=O)NC(=NCC4=CC=CS4)S3)N=C1
Outline: as §1

[9] = compound: C1=CC2=NC=CN=C2C=C1/C=C/3\C(=O)NC(=O)S3
Outline: as §1

[10] = compound: C1=CC=C(C=C1)C2=NC(=C(N2)C3=CC=NC=C3)C4=CC(=C(C=C4)Cl)O
Outline: as §1

[11] = compound: C1=CC=C2C(=C1)C3=NNC4=CC=CC(=C43)C2=O
Outline: as §1

[12] = compound: C1CCN(C1)C(=O)NC2=CC=CC(=C2)NC3=NC=C(C(=N3)NCCC4=CN=CN4)Br
Outline: as §1

[13] = compound: C1CN(CCC1(CC2=CC=C(C=C2)Cl)N)C3=NC=NC4=C3C=CN4
Outline: as §1

IRAK-1-4 Inhibitor I = compound: C1COCCN1CCN2C3=CC=CC=C3N=C2NC(=O)C4=CC(=CC=C4)[N+](=O)[O-] [IRAK-1-4 Inhibitor I]
Outline: as §1

ibrutinib = compound: C=CC(=O)N1CCC[C@@H](n2nc(-c3ccc(Oc4ccccc4)cc3)c3c(N)ncnc32)C1 [ibrutinib]
Outline: as §1

[14] = compound: CC(=O)c1cnc2ccc(-c3cc(Cl)c(O)c(Cl)c3)nc2c1N[C@H]1CC[C@H](CN(C)C)CC1
Outline: as §1

ralimetinib = compound: CC(C)(C)Cn1c(N)nc2ccc(-c3[nH]c(C(C)(C)C)nc3-c3ccc(F)cc3)nc21 [ralimetinib]
Outline: as §1

[15] = compound: CC(C)(O)CC(=O)NCCn1ccc2ncnc(Nc3ccc(Oc4cccc(C(F)(F)F)c4)c(Cl)c3)c21
Outline: as §1

[16] = compound: CC(C)C1=C2N=C(C=C(N2N=C1)NCC3=CC=CC=C3)NCCCCCCN
Outline: as §1

[17] = compound: CC1=C(C(CC(=O)N1)C2=CC=C(C=C2)C(F)(F)F)C(=O)NC3=C(C=C4C(=C3)C=NN4)F
Outline: as §1

[18] = compound: CC1=C(C2=C(C=C1)C(=O)C3=CC=CC=C3N2CCCN)C
Outline: as §1

[19] = compound: CC1=C(C=C(C=C1)NC(=O)C2=CC(=CC=C2)C(C)(C)C#N)NC3=CC4=C(C=C3)N=CN(C4=O)C
Outline: as §1

[20] = compound: CC1=C(C=C(C=C1)NC(=O)C2=CC(=CC=C2)N(C)C)NC(=O)C3=CC=C(C=C3)O
Outline: as §1

[21] = compound: CC1=CC=C(C=C1)SC2=C3C=C(SC3=CN=C2)C(=O)N
Outline: as §1

vemurafenib = compound: CCCS(=O)(=O)Nc1ccc(F)c(C(=O)c2c[nH]c3ncc(-c4ccc(Cl)cc4)cc23)c1F [vemurafenib]
Outline: as §1

[22] = compound: CCCS(=O)(=O)Nc1ccc(F)c(C(=O)c2c[nH]c3ncc(Cl)cc23)c1F
Outline: as §1

barasertib = compound: CCN(CCCOc1ccc2c(Nc3cc(CC(=O)Nc4cccc(F)c4)[nH]n3)ncnc2c1)CCOP(=O)(O)O [barasertib]
Outline: as §1

[23] = compound: CC[C@@H]1C(=O)N(C)c2cnc(Nc3ccc(C(=O)NC4CCN(C)CC4)cc3OC)nc2N1C1CCCC1
Outline: as §1

volasertib = compound: CC[C@@H]1C(=O)N(C)c2cnc(Nc3ccc(C(=O)N[C@H]4CC[C@H](N5CCN(CC6CC6)CC5)CC4)cc3OC)nc2N1C(C)C [volasertib]
Outline: as §1

[24] = compound: CCn1c(C(=O)N(C2CC2)C2CC2)cc2c3c(ncn3C)c(Nc3cc(C)n(C)n3)nc21
Outline: as §1

[25] = compound: CCn1cc(-c2ccnc3[nH]c(-c4cccc(CN(C)C)c4)cc23)c(-c2ccc(NC(=O)N(C)C)cc2)n1
Outline: as §1

[26] = compound: CN1CCC(CNc2ccc3ncc(-c4cccc(OC(F)(F)F)c4)n3n2)CC1
Outline: as §1

saracatinib = compound: CN1CCN(CCOc2cc(OC3CCOCC3)c3c(Nc4c(Cl)ccc5c4OCO5)ncnc3c2)CC1 [saracatinib]
Outline: as §1

sotrastaurin = compound: CN1CCN(c2nc(C3=C(c4c[nH]c5ccccc45)C(=O)NC3=O)c3ccccc3n2)CC1 [sotrastaurin]
Outline: as §1

alvocidib = compound: CN1CC[C@H](c2c(O)cc(O)c3c(=O)cc(-c4ccccc4Cl)oc23)[C@H](O)C1 [alvocidib]
Outline: as §1

Tubastatin A = compound: CN1CCc2c(c3ccccc3n2Cc2ccc(C(=O)NO)cc2)C1 [Tubastatin A]
Outline: as §1

[27] = compound: CNC(=O)C1=CC=CC=C1NC2=NC(=NC=C2Cl)NC3=C(C=C(C=C3)N4CCOCC4)OC
Outline: as §1

defactinib = compound: CNC(=O)c1ccc(Nc2ncc(C(F)(F)F)c(NCc3nccnc3N(C)S(C)(=O)=O)n2)cc1 [defactinib]
Outline: as §1

[28] = compound: CNc1nc(-c2ccc3c(N)n[nH]c3c2)cc(N2C[C@@H](C(=O)NC3CCCCC3)CC[C@H]2C)n1
Outline: as §1

encorafenib = compound: COC(=O)N[C@@H](C)CNc1nccc(-c2cn(C(C)C)nc2-c2cc(Cl)cc(NS(C)(=O)=O)c2F)n1 [encorafenib]
Outline: as §1

[29] = compound: COC(=O)[C@H](CCSC)NC(=O)C1=C(C=C(C=C1)NC[C@H](CS)N)C2=CC=CC=C2
Outline: as §1

alisertib = compound: COc1cc(Nc2ncc3c(n2)-c2ccc(Cl)cc2C(c2c(F)cccc2OC)=NC3)ccc1C(=O)O [alisertib]
Outline: as §1

[30] = compound: COc1cc2nc(-c3cc(F)ccc3O)nc(N[C@@H]3CNC[C@H]3C(C)(C)O)c2cc1OC
Outline: as §1

gefitinib = compound: COc1cc2ncnc(Nc3ccc(F)c(Cl)c3)c2cc1OCCCN1CCOCC1 [gefitinib]
Outline: as §1

lapatinib = compound: CS(=O)(=O)CCNCc1ccc(-c2ccc3ncnc(Nc4ccc(OCc5cccc(F)c5)c(Cl)c4)c3c2)o1 [lapatinib]
Outline: as §1

pictilisib = compound: CS(=O)(=O)N1CCN(Cc2cc3nc(-c4cccc5[nH]ncc45)nc(N4CCOCC4)c3s2)CC1 [pictilisib]
Outline: as §1

crizotinib = compound: C[C@@H](Oc1cc(-c2cnn(C3CCNCC3)c2)cnc1N)c1c(Cl)ccc(F)c1Cl [crizotinib]
Outline: as §1

[31] = compound: C[C@H](C1=CC=C(C=C1)C(=O)NC2=C3C=CNC3=NC=C2)N
Outline: as §1

duvelisib = compound: C[C@H](Nc1ncnc2nc[nH]c12)c1cc2cccc(Cl)c2c(=O)n1-c1ccccc1 [duvelisib]
Outline: as §1

gandotinib = compound: Cc1cc(Nc2cc(CN3CCOCC3)c3nc(C)c(Cc4ccc(Cl)cc4F)n3n2)n[nH]1 [gandotinib]
Outline: as §1

tozasertib = compound: Cc1cc(Nc2cc(N3CCN(C)CC3)nc(Sc3ccc(NC(=O)C4CC4)cc3)n2)n[nH]1 [tozasertib]
Outline: as §1

doramapimod = compound: Cc1ccc(-n2nc(C(C)(C)C)cc2NC(=O)Nc2ccc(OCCN3CCOCC3)c3ccccc23)cc1 [doramapimod]
Outline: as §1

bafetinib = compound: Cc1ccc(NC(=O)c2ccc(CN3CC[C@H](N(C)C)C3)c(C(F)(F)F)c2)cc1Nc1nccc(-c2cncnc2)n1 [bafetinib]
Outline: as §1

[32] = compound: Cc1cccc(CC(=O)N2CCc3c2ccc(-c2cn(C)c4ncnc(N)c24)c3F)n1
Outline: as §1

nilotinib = compound: Cc1cn(-c2cc(NC(=O)c3ccc(C)c(Nc4nccc(-c5cccnc5)n4)c3)cc(C(F)(F)F)c2)cn1 [nilotinib]
Outline: as §1

[33] = compound: Cc1nc(Nc2n[nH]c3c2CN(C(=O)N[C@H](CN(C)C)c2ccccc2)C3(C)C)c2sccc2n1
Outline: as §1

dasatinib = compound: Cc1nc(Nc2ncc(C(=O)Nc3c(C)cccc3Cl)s2)cc(N2CCN(CCO)CC2)n1 [dasatinib]
Outline: as §1

[34] = compound: Cc1ncc(-c2ccnc(Nc3ccc(S(C)(=O)=O)cc3)n2)n1C(C)C
Outline: as §1

[35] = compound: Cn1cc(-c2ccc3c(c2)CCN3C(=O)Cc2cccc(C(F)(F)F)c2)c2c(N)ncnc21
Outline: as §1

quisinostat = compound: Cn1cc(CNCC2CCN(c3ncc(C(=O)NO)cn3)CC2)c2ccccc21 [quisinostat]
Outline: as §1

tipifarnib = compound: Cn1cncc1[C@@](N)(c1ccc(Cl)cc1)c1ccc2c(c1)c(-c1cccc(Cl)c1)cc(=O)n2C [tipifarnib]
Outline: as §1

[36] = compound: NC(=O)Nc1cc(-c2cccc(F)c2)sc1C(=O)N[C@H]1CCCNC1
Outline: as §1

[37] = compound: NC(=O)c1cnc(N[C@@H]2CCCC[C@@H]2N)nc1Nc1cccc(-n2nccn2)c1
Outline: as §1

[38] = compound: NC1(c2ccc(-c3nc4ccn5c(=O)[nH]nc5c4cc3-c3ccccc3)cc2)CCC1
Outline: as §1

[39] = compound: NCC(=O)Nc1ccc(-n2nc(C(F)(F)F)cc2-c2ccc3c(ccc4ccccc43)c2)cc1
Outline: as §1

vorinostat = compound: O=C(CCCCCCC(=O)Nc1ccccc1)NO [vorinostat]
Outline: as §1

silmitasertib = compound: O=C(O)c1ccc2c(c1)nc(Nc1cccc(Cl)c1)c1ccncc12 [silmitasertib]
Outline: as §1

[40] = compound: O=C1NC(=O)C(c2cnc3ccccn23)=C1c1cn2c3c(cc(F)cc13)CN(C(=O)N1CCCCC1)CC2
Outline: as §1

entospletinib = compound: c1cn2cc(-c3ccc4cn[nH]c4c3)nc(Nc3ccc(N4CCOCC4)cc3)c2n1 [entospletinib]
Outline: as §1

Measured: log2 fold change

SEH1L isoform 1 (UniProt Q96EE3)
inactive: [1] 0.016 | [2] 0.031 | [3] -0.045 | [4] -0.041 | [5] -0.028

SCFD1 (UniProt Q8WVM8)
inactive: [1] -0.021 | [2] -0.003 | [3] -0.009 | [4] 0.052 | [5] 0.011

SARS2 (UniProt Q9NP81)
inactive: erlotinib 0.004 | [6] 0.051 | [7] -0.042 | [8] -0.026 | [9] 0.045 | [10] 0.006 | [1] -0.041 | [11] 0.012 | [12] -0.033 | [13] 0.036 | IRAK-1-4 Inhibitor I 0.01 | ibrutinib -0.014 | [14] 0.025 | ralimetinib -0.022 | [15] -0.022 | [16] 0.058 | [17] -0.024 | [18] -0.015 | [19] -0.01 | [20] 0.016 | [2] 0.038 | [3] 0 | [21] 0.013 | vemurafenib 0.02 | [22] 0.022 | barasertib -0.014 | [23] -0.002 | volasertib -0.025 | [24] 0.006 | [25] -0.013 | [26] 0.02 | saracatinib -0.006 | sotrastaurin 0.048 | alvocidib 0.021 | Tubastatin A -0.046 | [27] 0.006 | defactinib -0.017 | [28] 0.011 | encorafenib -0.051 | [29] 0.078 | alisertib 0.041 | [30] 0 | gefitinib -0.025 | lapatinib 0.024 | pictilisib -0.049 | crizotinib -0.035 | [31] -0.006 | duvelisib -0.01 | gandotinib 0.007 | tozasertib -0.015 | doramapimod 0.028 | bafetinib -0.084 | [32] 0.037 | nilotinib 0.001 | [33] 0.003 | dasatinib -0.002 | [34] 0.036 | [4] 0.006 | [35] 0.01 | quisinostat -0.028 | tipifarnib 0.009 | [36] 0.033 | [37] -0.019 | [38] 0.003 | [39] -0.002 | vorinostat -0.058 | silmitasertib 0.046 | [40] 0.005 | [5] 0.001 | entospletinib 0.022
